{"source": "patent US6235739A", "about": "“5-phenyl-3-pyridazinone derivatives and drug composition containing the same” (Nikken Chemicals Co., Ltd., priority 1996, dated 2001)", "note": "Some results were stated once for a whole list of compounds, not compound by compound."}
{"test": "Acute toxicity test", "assay_type": "in vivo", "settings": "30 mg/kg intraperitoneally in mice"}
{"molecule": "COc1ccc(C2C=NNC(=O)C2)cc1OCC1(c2ccccc2)CC1", "note": "(stereo not shown) [Compound No. 25, 5-[4-methoxy-3-[(1-phenylcyclopropyl)methyloxy]phenyl]-2,3,4,5-tetrahydropyridazin-3-one]", "death (survival rate the next day)": "no death"}
{"molecule": "COc1ccc(C2C=NNC(=O)C2)cc1OCc1ccccc1", "note": "(stereo not shown) [Compound No. 7, 5-(3-benzyloxy-4-methoxyphenyl)-2,3,4,5-tetrahydropyridazin-3-one]", "death (survival rate the next day)": "no death"}
{"molecule": "COc1ccc(C2C=NN(C)C(=O)C2)cc1OCCc1ccccc1", "note": "(stereo not shown) [Compound No. 19, 5-(4-methoxy-3-phenethyloxyphenyl) -2-methyl-2,3,4,5-tetrahydropyridazin-3-one]", "death (survival rate the next day)": "no death"}
{"molecule": "COc1ccc(C2C=NNC(=O)C2)cc1OC1Cc2ccccc2C1", "note": "(stereo not shown) [Compound No. 9, 5-[3-(2-indanyloxy)-4-methoxyphenyl]-2,3,4,5-tetrahydropyridazin-3-one]", "death (survival rate the next day)": "no death"}
{"molecule": "COc1ccc(C2C=NN(C)C(=O)C2)cc1OCC1(C)CC1", "note": "(stereo not shown) [Compound No. 22, 5-[4-methoxy-3-[(1-methylcyclopropyl)methyloxy]phenyl]-2-methyl-2,3,4,5-tetrahydropyridazin-3-one]", "death (survival rate the next day)": "no death"}
{"molecule": "COc1ccc(C2C=NN(C)C(=O)C2)cc1OCC(C)(C)C", "note": "(stereo not shown) [Compound No. 21, 5-[3-(2,2-dimethylpropoxy)-4-methoxyphenyl]-2-methyl-2,3,4,5-tetrahydropyridazin-3-one]", "death (survival rate the next day)": "no death"}
{"molecule": "COc1ccc(C2C=NNC(=O)C2)cc1OC", "note": "(stereo not shown) [Compound No. 1, 5-(3,4-dimethoxyphenyl)-2,3,4,5-tetrahydropyridazin-3-one]", "death (survival rate the next day)": "no death"}
{"molecule": "COc1ccc(C2C=NN(Cc3ccccc3)C(=O)C2)cc1OC1CCCC1", "note": "(stereo not shown) [Compound No. 6, 2-benzyl-5-(3-cyclopentyloxy-4-methoxyphenyl)-2,3,4,5-tetrahydropyridazin-3-one]", "death (survival rate the next day)": "no death"}
{"molecule": "COc1ccc(C2C=NNC(=O)C2)cc1OCC1CC1", "note": "(stereo not shown) [Compound No. 10, 5-(3-cyclopropylmethyloxy-4-methoxyphenyl)-2,3,4,5-tetrahydropyridazin-3-one]", "death (survival rate the next day)": "no death"}
{"molecule": "COc1ccc(C2C=NNC(=O)C2)cc1OC1CCCC1", "note": "(stereo not shown) [Compound No. 3, 5-(3-cyclopentyloxy-4-methoxyphenyl)-2,3,4,5-tetrahydropyridazin-3-one]", "death (survival rate the next day)": "no death"}
{"molecule": "COc1ccc(C2C=NNC(=O)C2)cc1OCC(C)C", "note": "(stereo not shown) [Compound No. 12, 5-[4-methoxy-3-(2-methylpropoxy)phenyl]-2,3,4,5-tetrahydropyridazin-3-one]", "death (survival rate the next day)": "no death"}
{"molecule": "COc1ccc(C2C=NNC(=O)C2)cc1OCC1(C)CC1", "note": "(stereo not shown) [Compound No. 11, 5-[4-methoxy-3-[(1-methylcyclopropyl)methyloxy]phenyl]2,3,4,5-tetrahydropyridazin-3-one]", "death (survival rate the next day)": "no death"}
{"molecule": "COc1ccc(C2C=NNC(=O)C2)cc1OCCCCCc1ccccc1", "note": "(stereo not shown) [Compound No. 16, 5-[4-methoxy-3-(5-phenylpentyloxy)phenyl]-2,3,4,5-tetrahydropyridazin-3-one]", "death (survival rate the next day)": "no death"}
{"molecule": "COc1ccc(C2C=NN(C)C(=O)C2)cc1OC1CCCC1", "note": "(stereo not shown) [Compound No. 5, 5-(3-cyclopentyloxy-4-methoxyphenyl)-2-methyl-2,3,4,5-tetrahydropyridazin-3-one]", "death (survival rate the next day)": "no death"}
{"molecule": "COc1ccc(C2C=NN(C)C(=O)C2)cc1OC1Cc2ccccc2C1", "note": "(stereo not shown) [Compound No. 17, 5-[3-(2-indanyloxy)-4-methoxyphenyl]-2-methyl-2,3,4,5-tetrahydropyridazin-3-one]", "death (survival rate the next day)": "no death"}
{"molecule": "COc1ccc(C2C=NN(c3ccccc3)C(=O)C2)cc1OC", "note": "(stereo not shown) [Compound No. 2, 5-(3,4-dimethoxyphenyl)-2-phenyl-2,3,4,5-tetrahydropyridazin-3-one]", "death (survival rate the next day)": "no death"}
{"molecule": "COc1ccc(C2C=NN(C)C(=O)C2)cc1OCC1CC1", "note": "(stereo not shown) [Compound No. 18, 5-(3-cyclopropylmethyloxy-4-methoxyphenyl) -2-methyl-2,3,4,5-tetrahydropyridazin-3-one]", "death (survival rate the next day)": "no death"}
{"molecule": "CCC(CC)COc1cc(C2C=NN(C)C(=O)C2)ccc1OC", "note": "(stereo not shown) [Compound No. 24, 5-[4-methoxy-3-(2-ethylbutoxy)phenyl]-2-methyl-2,3,4,5-tetrahydropyridazin-3-one]", "death (survival rate the next day)": "no death"}
{"molecule": "CCCCOc1cc(C2C=NNC(=O)C2)ccc1OC", "note": "(stereo not shown) [Compound No. 13, 5-(3-butoxy-4-methoxyphenyl)-2,3,4,5-tetrahydropyridazin-3-one]", "death (survival rate the next day)": "no death"}
{"molecule": "COc1ccc(C2C=NN(C)C(=O)C2)cc1OCC(C)C", "note": "(stereo not shown) [Compound No. 20, 5-[4-methoxy-3-(2-methylpropoxy)phenyl]-2-methyl-2,3,4,5-tetrahydropyridazin-3-one]", "death (survival rate the next day)": "no death"}
{"molecule": "COc1ccc(C2CC(=O)NN=C2C)cc1OC", "note": "(stereo not shown) [compound 27, 5-(3,4-dimethoxyphenyl)-6-methyl-2,3,4 5-tetrahydropyridazin-3-one]", "death (survival rate the next day)": "no death"}
{"molecule": "COc1ccc(C2C=NNC(=O)C2)cc1OCC(C)(C)C", "note": "(stereo not shown) [Compound No. 15, 5-[3-(2,2-dimethylpropoxy)-4-methoxyphenyl]-2,3,4,5-tetrahydropyridazin-3-one]", "death (survival rate the next day)": "no death"}
{"molecule": "CCCCOc1cc(C2C=NN(C)C(=O)C2)ccc1OC", "note": "(stereo not shown) [Compound No. 23, 5-(3-butoxy-4-methoxyphenyl)-2-methyl-2,3,4,5-tetrahydropyridazin-3-one]", "death (survival rate the next day)": "no death"}
{"molecule": "COc1ccc(C2CC(=O)NN=C2c2ccccc2)cc1OC1CCCC1", "note": "(stereo not shown) [Compound No. 28, 5-(3-cyclopentyloxy-4-methoxyphenyl)-6-phenyl-2,3,4,5-tetrahydropyridazin-3-one]", "death (survival rate the next day)": "no death"}
{"molecule": "COc1ccc(C2CNNC(=O)C2)cc1OC1CCCC1", "note": "(stereo not shown) [Compound No. 4, 5-(3-cyclopentyloxy-4-methoxyphenyl)hexahydropyridazin-3-one]", "death (survival rate the next day)": "no death"}
{"molecule": "CCC(CC)COc1cc(C2C=NNC(=O)C2)ccc1OC", "note": "(stereo not shown) [Compound No. 14, 5-[3-(2-ethylbutoxy)-4-methoxyphenyl]-2,3,4,5-tetrahydropyridazin-3-one]", "death (survival rate the next day)": "no death"}
{"molecule": "COc1ccc(C2C=NN(C)C(=O)C2)cc1OCC1(c2ccccc2)CC1", "note": "(stereo not shown) [Compound No. 26, 5-[4-methoxy-3-[(1-phenylcyclopropyl)methyloxy]phenyl]-2-methyl-2,3,4,5-tetrahydropyridazin-3-one]", "death (survival rate the next day)": "no death"}
{"molecule": "COc1ccc(C2C=NNC(=O)C2)cc1OCCc1ccccc1", "note": "(stereo not shown) [Compound No. 8, 5-(4-methoxy-3-phenethyloxyphenyl)-2,3,4,5-tetrahydropyridazin-3-one]", "death (survival rate the next day)": "no death"}
